The values below come from patent publication US9409865B2, “Modulators of methyl modifying enzymes, compositions and uses thereof” (Constellation Pharmaceuticals, Inc., priority 2011, dated 2016).

Amino acid sequences for entries named in this document (tags omitted). A change or cut given only in a name is not applied to a line headed by its entry.
UniProt Q15910, whole entry: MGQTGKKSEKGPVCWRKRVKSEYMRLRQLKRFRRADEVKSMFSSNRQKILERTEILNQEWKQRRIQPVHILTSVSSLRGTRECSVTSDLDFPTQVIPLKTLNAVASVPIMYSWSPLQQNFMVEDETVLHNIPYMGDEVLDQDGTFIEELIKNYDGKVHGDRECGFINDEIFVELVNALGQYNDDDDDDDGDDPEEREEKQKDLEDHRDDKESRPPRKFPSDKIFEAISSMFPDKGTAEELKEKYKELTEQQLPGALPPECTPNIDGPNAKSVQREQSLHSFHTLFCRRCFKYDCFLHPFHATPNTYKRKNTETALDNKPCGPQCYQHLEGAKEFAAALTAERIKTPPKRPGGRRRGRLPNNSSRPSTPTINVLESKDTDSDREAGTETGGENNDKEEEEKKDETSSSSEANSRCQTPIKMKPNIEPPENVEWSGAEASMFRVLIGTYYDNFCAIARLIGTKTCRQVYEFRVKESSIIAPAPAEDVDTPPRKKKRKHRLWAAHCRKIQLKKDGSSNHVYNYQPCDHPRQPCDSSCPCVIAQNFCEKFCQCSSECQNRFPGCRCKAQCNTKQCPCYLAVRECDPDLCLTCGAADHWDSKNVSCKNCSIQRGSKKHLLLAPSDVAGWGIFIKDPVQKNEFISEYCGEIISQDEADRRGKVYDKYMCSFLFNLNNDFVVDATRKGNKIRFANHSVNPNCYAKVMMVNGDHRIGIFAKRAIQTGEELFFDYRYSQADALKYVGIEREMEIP
UniProt Q15910, whole entry Y641N: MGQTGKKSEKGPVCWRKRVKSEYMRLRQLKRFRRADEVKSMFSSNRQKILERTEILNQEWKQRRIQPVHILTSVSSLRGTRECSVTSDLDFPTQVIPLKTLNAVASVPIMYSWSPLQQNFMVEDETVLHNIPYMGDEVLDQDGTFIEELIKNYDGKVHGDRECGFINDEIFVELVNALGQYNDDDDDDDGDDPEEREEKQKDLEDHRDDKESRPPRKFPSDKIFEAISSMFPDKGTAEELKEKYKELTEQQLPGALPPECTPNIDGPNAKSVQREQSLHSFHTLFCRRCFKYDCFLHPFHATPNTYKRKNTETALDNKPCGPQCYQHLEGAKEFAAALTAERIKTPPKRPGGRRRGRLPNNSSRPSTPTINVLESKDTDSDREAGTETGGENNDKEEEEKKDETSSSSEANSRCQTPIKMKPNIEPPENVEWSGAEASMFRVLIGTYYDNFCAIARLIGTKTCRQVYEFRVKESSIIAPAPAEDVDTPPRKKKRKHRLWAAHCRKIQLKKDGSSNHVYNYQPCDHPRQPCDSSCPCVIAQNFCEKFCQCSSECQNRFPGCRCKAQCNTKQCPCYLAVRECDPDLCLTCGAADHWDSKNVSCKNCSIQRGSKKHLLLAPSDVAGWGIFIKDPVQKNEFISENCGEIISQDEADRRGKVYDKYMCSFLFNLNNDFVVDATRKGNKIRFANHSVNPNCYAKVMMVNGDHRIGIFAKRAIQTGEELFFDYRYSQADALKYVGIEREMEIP
UniProt Q15022, whole entry partner: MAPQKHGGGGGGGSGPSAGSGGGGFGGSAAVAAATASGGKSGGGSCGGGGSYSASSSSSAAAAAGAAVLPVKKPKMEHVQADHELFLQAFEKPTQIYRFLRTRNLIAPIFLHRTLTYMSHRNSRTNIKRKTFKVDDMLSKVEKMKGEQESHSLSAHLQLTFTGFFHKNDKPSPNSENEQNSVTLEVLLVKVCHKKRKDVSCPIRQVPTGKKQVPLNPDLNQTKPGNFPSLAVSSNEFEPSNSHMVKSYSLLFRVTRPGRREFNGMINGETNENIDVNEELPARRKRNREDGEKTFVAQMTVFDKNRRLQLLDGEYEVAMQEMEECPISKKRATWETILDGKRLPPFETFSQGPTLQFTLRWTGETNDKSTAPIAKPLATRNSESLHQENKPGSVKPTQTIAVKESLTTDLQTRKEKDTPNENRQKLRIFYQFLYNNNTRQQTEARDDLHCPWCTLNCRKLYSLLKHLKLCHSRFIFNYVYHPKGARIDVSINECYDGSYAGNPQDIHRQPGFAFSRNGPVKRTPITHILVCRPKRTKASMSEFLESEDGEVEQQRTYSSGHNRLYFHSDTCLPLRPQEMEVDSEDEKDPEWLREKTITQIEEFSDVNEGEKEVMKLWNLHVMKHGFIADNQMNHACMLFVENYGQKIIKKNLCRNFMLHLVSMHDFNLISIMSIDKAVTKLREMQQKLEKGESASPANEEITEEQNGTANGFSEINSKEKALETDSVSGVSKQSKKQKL
UniProt O75530, whole entry partner: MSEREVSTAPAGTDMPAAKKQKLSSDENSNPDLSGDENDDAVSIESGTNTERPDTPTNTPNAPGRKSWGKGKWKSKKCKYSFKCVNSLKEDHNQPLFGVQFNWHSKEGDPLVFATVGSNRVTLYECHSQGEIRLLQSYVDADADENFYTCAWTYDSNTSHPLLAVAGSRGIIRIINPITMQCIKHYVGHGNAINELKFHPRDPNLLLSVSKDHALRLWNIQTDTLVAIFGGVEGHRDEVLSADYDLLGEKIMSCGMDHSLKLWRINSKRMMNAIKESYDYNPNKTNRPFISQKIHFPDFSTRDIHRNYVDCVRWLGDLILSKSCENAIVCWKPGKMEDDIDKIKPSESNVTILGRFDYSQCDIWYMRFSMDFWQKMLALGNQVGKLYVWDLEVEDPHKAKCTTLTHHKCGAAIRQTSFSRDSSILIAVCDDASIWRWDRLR

The IC50 is the concentration needed to halve the response being measured.

The structures given here were assigned with low confidence; some may be wrong. Where only a bound is given, the exact number is not on record here.

One test addresses EZH2 (Homo sapiens, UniProt Q15910). Description: EZH2 assay (rPRC2, 3H SAM methyl transfer to biotinylated oligonucleosomes). The following applies: read-out: EZH2 IC50; rPRC2, 2 nM EZH2, biotinylated oligonucleosomes, 0.2 μM 3H SAM; top concentration 80 μM. As to the method:
(§1) Assays were carried out by mixing rPRC2 together with biotinylated oligonucleosome substrates in the presence of the radio-labeled enzyme co-factor, S-adenosyl-L-methionine (^3H SAM) (Perkin Elmer) and monitoring the enzymatically mediated transfer of tritiated methyl groups from ^3H SAM to histone lysine residues. The amount of resulting tritiated methylhistone product was measured by first capturing the biotinylated oligonucleosomes in streptavidin (SAV) coated FlashPlates (Perkin Elmer), followed by a wash step to remove un-reacted ^3H SAM, and then counting on a TopCount NXT 384 well plate scintillation counter (Perkin Elmer). The final assay conditions for EZH2 were as follows: 50 mM Tris Buffer pH 8.5, 1 mM DTT, 69 μM Brij-35 detergent, 5.0 mM MgCl2, 0.1 mg/mL BSA, 0.2 μM ^3H SAM, 0.2 μM biotinylated oligonucleosomes, 3.6 μM H3K27me3 peptide and 2 nM EZH2.
(§2) Compound IC50 measurements were obtained as follows: Compounds were first dissolved in 100% DMSO as 10 mM stock solutions. Ten point dose response curves were generated by dispensing varying amounts of the 10 mM compound solution in 10 wells of the 384 well plate (Echo; Labcyte), pure DMSO was then used to backfill the wells to insure all wells have the same amount of DMSO. […]

Another test deals with Y641N EZH2 (Homo sapiens, UniProt Q15910, Y641N). The test is described as follows: Y641N EZH2 assay (as the EZH2 assay, with H3K27Me2 oligonucleosomes as substrate). As to conditions: read-out: Y641N EZH2 IC50; Y641N EZH2 mutant, reconstituted H3K27Me2 oligonucleosomes as substrate; top concentration 80 μM. As to the method:
as §1, §2

On to `CCCC(C)c1ccc(C(=O)NCc2c(C)cc(C)[nH]c2=O)cc1` (stereo not shown) [Compound I-10, N-((2-hydroxy-4,6-dimethylpyridin-3-yl)methyl)-4-(pentan-2-yl)benzamide], for which the IC50 at EZH2 and on Y641N EZH2 was below 1 µM in each case.

On to `CCC(C)n1ccc(C(=O)NCc2c(C)cc(C)[nH]c2=O)cc1=O` (stereo not shown), for which the IC50 at EZH2 and at Y641N EZH2 was above 80 µM throughout.
